Data published in PubChem BioAssay AID2685 (National Center for Advancing Translational Sciences (NCATS), 2010).
Some of the results follow. Shown are side measurements of this screen, not its main read-out; they come without a call. Most of these compounds were active or inconclusive in the main read-out, so they are no random draw. Words in brackets tell the shape of the fitted curve; partial curves, single points and poor fits give uncertain potencies.

Assay: qHTS Assay for Lipid Storage Modulators in Drosophila S3 Cells;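 for cell number change: cells counted by Cell Tracker Red CMTPX staining in the red channel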
Settings: BODIPY lipid droplet fluorescence, 18-24 h; for cell number change: measured here: cell count max response, cells fed with added oleic acid
Procedure, shortened: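 Drosophila S3 cells got compounds at several concentrations plus oleic acid (400 uM solution). Laser-scanning cytometry with 488 nm excitation read lipid droplets at 500-530 nm and cells at 575-640 nm. Percent activity was relative to 20 uM Triacsin C.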

[1] = measured here: lipid fluorescence (Fed channel) AC50, cells fed with added oleic acid
[2] = measured here: cell number channel AC50, cells fed with added oleic acid

Row | Structure (SMILES) | cell number change | AC50 [1] | AC50 [2]
1 | CC(=O)c1cccc(NC(=O)COc2ccccc2C(=O)c2cc(C#N)c(=O)n(C3CCCCC3)c2)c1 | 10.9% | 1.84 µM [rising, full curve, poor fit] | –
2 | O=C(CCc1ccccc1)Nc1nnc(-c2ccc3c(c2)CCCC3)o1 | -30.1% | 20.6 µM [falling, single point] | 18.4 µM [falling, single point]
3 | CN(Cc1ccccc1)S(=O)(=O)c1ccc(Cl)c(C(=O)N2CCC2)c1 | 16.1% | 13 µM [rising, partial curve, poor fit] | –
4 | O=C1CC(c2cccs2)CC(O)=C1C=NCCN1CCNCC1 (stereo not drawn) | -52.4% | 6.51 µM [falling, single point] | 0.206 µM [falling, full curve]
5 | CCOC(=O)C1CCCN(C(=O)c2ccc(CS(=O)(=O)Cc3ccccc3C)o2)C1 (stereo not drawn) | 211% | – | 23.1 µM [rising, partial curve]
6 | CC(C)[C@H](NC(=O)c1cccc(S(=O)(=O)N2CCOCC2)c1)C(=O)Nc1nccs1 | – | 0.82 µM [rising, full curve] | –
7 | Cc1cccc2cc(C#N)c(NCCNC(=O)NC3CCCCC3)nc12 | – | 4.11 µM [rising, partial curve, poor fit] | 3.66 µM [rising, partial curve, poor fit]
8 | CCC(=O)Nc1cc(-c2nnc(OC)c3ccccc23)ccc1N1CCOCC1 | 3.56% | – | –
9 | COc1ccc(CNC(=O)COC(=O)c2cccnc2Nc2cccc(C(F)(F)F)c2)cc1 | 1.68% | 0.058 µM [rising, full curve] | –
10 | Cc1ccn(C(=O)c2ccc(NC(=O)CC(C)C)cc2)n1 | -30.5% | 29.1 µM [falling, single point] | 18.4 µM [falling, single point]
11 | COC(=O)C(C(=O)OC)c1ccc(-n2cccc2)cc1 | -3.08% | – | –
12 | COC(=O)c1cc(OC)c(OC)cc1NC(=O)Cn1nnc(-c2ccccc2Cl)n1 | – | 1.84 µM [rising, partial curve] | 2.59 µM [rising, partial curve]
13 | NS(=O)(=O)c1ccc(N/N=C/c2cn(-c3ccccc3)nc2-c2ccccc2)c([N+](=O)[O-])c1 | -15.1% | 16.4 µM [falling, single point] | –
14 | CCCNC(=O)CSc1nnc(-c2ccccc2Br)n1-c1cccc(C(F)(F)F)c1 | -30.4% | 18.4 µM [falling, single point] | 14.6 µM [falling, single point]
15 | COc1cccc(/C=C/C(=O)OCC(=O)NC(=O)NC2CCCCC2)c1 | 28.1% | – | –
16 | O=C(COC(=O)Cc1n[nH]c(=O)c2ccccc12)Nc1cccc(C(F)(F)F)c1 | – | – | 0.00517 µM [falling, full curve, poor fit]
17 | CCCn1c(C(O)c2ccc3c(c2)OCO3)nc2ccccc21 (stereo not drawn) | -9.99% | 6.51 µM [rising, partial curve] | –
18 | O=C(COC(=O)c1ccccc1Br)Nc1nnc(-c2ccccc2)o1 | -9.76% | 0.411 µM [falling, single point] | –
19 | CCn1c(SCC(=O)NC2(C#N)CCCCC2)nc2ccccc2c1=O | 61.5% | – | 4.61 µM [rising, partial curve]
20 | Cc1cc(NC(=O)CCC(=O)N(C(C(=O)NC(C)(C)C)c2ccccc2Cl)C(C)(C)C)no1 (stereo not drawn) | 24.8% | 6.51 µM [falling, single point] | –

Row | Structure (SMILES) | cell number change | AC50 [1] | AC50 [2]
21 | O=C(CSc1nc(-c2ccccc2)cc(=O)[nH]1)N1CCOCC1 | -8.61% | 0.82 µM [falling, partial curve, poor fit] | –
22 | Nc1nnc(/C=C/c2cccc([N+](=O)[O-])c2)s1 | – | 6.51 µM [rising, single point] | –
23 | COC(=O)N/N=C/c1cn(CC(C)COc2ccccc2)c2ccccc12 (stereo not drawn) | -28.6% | 0.00517 µM [falling, full curve, poor fit] | –
24 | Cc1c(F)cccc1NS(=O)(=O)c1ccc2c(c1)n(C)c(=O)c(=O)n2C | 7.98% | – | –
25 | CCC(C)Cn1c(O)cc2nn(-c3nc4ccccc4s3)c(=O)c-2c1C (stereo not drawn) | – | 29.1 µM [falling, single point] | –
26 | CN(C(=O)CSc1nc(-c2ccc(C(C)(C)C)cc2)c(C#N)c(=O)[nH]1)C1CCCCC1 | 7.03% | 0.0164 µM [rising, full curve, poor fit] | –
27 | Cc1ccc(OCc2nnc(SCc3cc(=O)[nH]c4ccccc34)o2)cc1 | 0.489% | – | –
28 | CC(C(=O)Nc1ccon1)N1C(=O)c2ccccc2S1(=O)=O (stereo not drawn) | -0.0956% | 0.291 µM [falling, full curve] | –
29 | CC(=O)Oc1ccc(C(=O)c2ccccc2)c(OC(C)=O)c1 | -10.4% | 0.00411 µM [falling, full curve, poor fit] | –
30 | Cc1ccc(-n2ncc3c(NCc4cccnc4)ncnc32)cc1C | -29.6% | – | –
31 | CC(NC(=O)C(Cc1ccccc1)n1cccc1)c1ccccc1 (stereo not drawn) | 16.8% | 0.731 µM [falling, full curve] | –
32 | CCC(CO)NCc1ccc(OC2CCCC2)cc1 (stereo not drawn) | -3.48% | 23.1 µM [falling, single point] | –
33 | CC(C)NC(=O)NC(=O)COc1c(F)c(F)cc(F)c1F | -5.46% | 0.092 µM [falling, full curve] | –
34 | O=C1CC[C@@H](O)CCN1CC[C@H](Sc1ccc(Br)cc1)c1ccccc1 | -6.02% | 3.66 µM [rising, single point] | –
35 | COc1cc2[nH]c(=O)n(CCC(=O)NCCC(C)C)c(=O)c2cc1OC | -31% | 0.92 µM [falling, full curve, poor fit] | 29.1 µM [falling, single point]
36 | Cc1nnc(SCCn2c(N3CCN(Cc4ccccc4)CC3)nc3c2c(=O)[nH]c(=O)n3C)s1 | -0.185% | – | –
37 | CO/N=C/c1ccc(OC)c(Oc2nc(OC)cc(OC)n2)c1 | 12.3% | 0.146 µM [rising, full curve, poor fit] | 0.291 µM [rising, full curve, poor fit]
38 | CCN1CCCC1CNC(=S)Nc1ccc(C(C)=O)cc1 (stereo not drawn) | 3.01% | – | –
39 | COc1ccc(-n2c(C)c(C)c3c(NCCCN(C)C)ncnc32)cc1 | – | 0.651 µM [rising, full curve] | –
40 | O=C(CCn1cncn1)N1CCCC(N2CCN(c3ccc(F)cc3)CC2)C1 (stereo not drawn) | 16.5% | – | –

Pulled by structure from above (three):
Row | Structure (SMILES) | cell number change | AC50 [1] | AC50 [2]
23 | COC(=O)N/N=C/c1cn(CC(C)COc2ccccc2)c2ccccc12 (stereo not drawn) | -28.6% | 0.00517 µM [falling, full curve, poor fit] | –
17 | CCCn1c(C(O)c2ccc3c(c2)OCO3)nc2ccccc21 (stereo not drawn) | -9.99% | 6.51 µM [rising, partial curve] | –
38 | CCN1CCCC1CNC(=S)Nc1ccc(C(C)=O)cc1 (stereo not drawn) | 3.01% | – | –

(list continues)

Row | Structure (SMILES) | cell number change | AC50 [1] | AC50 [2]
41 | O=C(Nc1nc2ccccc2s1)C1CCN(C(=O)c2ccco2)CC1 | 8.4% | – | –
42 | O=C(NCCc1ccccc1)c1ccc(NC2=NC3CS(=O)(=O)CC3S2)cc1 (stereo not drawn) | -32.5% | – | 0.082 µM [falling, partial curve, poor fit]
43 | Cc1ccc(NC(=O)COC(=O)CN2C(=O)c3ccccc3C2=O)cc1 | -0.376% | 29.1 µM [falling, single point] | –
44 | O=C(N1CCCCCC1)N1CCN(S(=O)(=O)N2CCOCC2)CC1 | -24.9% | 0.0164 µM [falling, full curve, poor fit] | 1.84 µM [falling, full curve, poor fit]
45 | Cc1cccc(-n2c(=O)c(C#N)cc3c(=O)n4ccccc4nc32)c1 | 22.1% | – | 0.461 µM [rising, full curve, poor fit]
46 | O=C(NCc1ccc(Cl)cc1)C1CCN(S(=O)(=O)c2cccs2)CC1 | 16.1% | – | –
47 | Fc1cccc(CSc2ccc3nnc(-c4cccnc4)n3n2)c1 | -63.3% | 29.1 µM [falling, partial curve] | 29.1 µM [falling, single point]
48 | O=C(c1cc2ncc(Br)cn2n1)N1CCOCC1 | -100% | 1.46 µM [falling, full curve] | 1.03 µM [falling, full curve]
49 | Cc1ccc(C(=O)N(CN2CCCC2=O)c2ccc(F)cc2)cc1C | – | 6.51 µM [rising, single point] | –
50 | CN(c1ccc(OCC(=O)NCc2cccnc2)cc1)S(=O)(=O)c1ccc(Cl)cc1 | – | 6.51 µM [rising, single point] | –
51 | Cc1ncc(CO)c(/C=N/Nc2cccc(Cl)n2)c1O | 15.5% | 3.66 µM [rising, single point] | 0.184 µM [rising, full curve, poor fit]
52 | CCC(=NCc1ccc(Cl)c(Cl)c1)c1nc(-c2ccco2)oc1O | – | 8.2 µM [rising, partial curve] | 1.3 µM [falling, partial curve]
53 | O=C(NCCc1ccccc1F)C(=O)Nc1nccs1 | -28.5% | – | –
54 | Cc1cc(C)n(-c2ccc(C(=O)NCCCN3CCOCC3)cc2)n1 | -91.6% | 14.6 µM [falling, partial curve] | 16.4 µM [falling, partial curve]
55 | CCOc1ccccc1CNC(=O)CCn1ccc2cc(S(=O)(=O)N3CCCCC3)ccc21 | 20.6% | 29.1 µM [falling, single point] | –
56 | CN(C)S(=O)(=O)c1ccc(N2CCCC2)c(C(=O)NC(c2ccccc2)c2ccccc2)c1 | 4.5% | 0.651 µM [rising, single point] | 1.16 µM [rising, partial curve]
57 | Cc1ccc(N(CC(=O)N2CCc3ccccc32)S(=O)(=O)c2cccs2)cc1 | 88.6% | – | 8.2 µM [rising, partial curve]
58 | Cc1cccc(NC(=O)c2cc3ccccc3oc2=O)c1 | 6.2% | 0.58 µM [rising, single point] | 0.291 µM [rising, full curve, poor fit]
59 | Cc1ccc(CNC2=NCCCCC2)n1C | -70.4% | 18.4 µM [falling, partial curve] | 18.4 µM [falling, partial curve]
